Results as given in the supplement of paper PMC3334620.
In all, about 33,000 sequences were measured (“E-score (-0.5 to 0.5)”: median about -0.0059, highest 2% from about 0.26 on). Some of the results follow.

Target: T1, Cin5 (UniProt P40917)
T1 sequence: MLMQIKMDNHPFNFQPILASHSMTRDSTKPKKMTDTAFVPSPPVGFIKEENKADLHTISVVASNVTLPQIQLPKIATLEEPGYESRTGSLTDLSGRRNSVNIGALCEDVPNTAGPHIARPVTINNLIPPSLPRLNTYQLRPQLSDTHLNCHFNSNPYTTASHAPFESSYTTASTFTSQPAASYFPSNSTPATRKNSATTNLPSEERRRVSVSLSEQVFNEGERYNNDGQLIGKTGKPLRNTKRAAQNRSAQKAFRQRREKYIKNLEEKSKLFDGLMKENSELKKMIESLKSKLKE
Assay: PBM E-score (8-mer binding enrichment) (E-score (-0.5 to 0.5)); higher = stronger / more preferred TF binding
Details: protein concentration: 100 nM; construct: GST-full length
How it was run: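 Full-length yeast transcription factors or their DNA-binding domains, GST-tagged and expressed with PURExpress, were applied at about 100-200 nM to universal all-10-mer Agilent arrays. These arrays had been made double-stranded by primer extension on fresh or once-stripped slides. Detection used fluorescent anti-GST, normalisation used masliner, and E-scores for ungapped eight-base words pooled with reverse complements came from the Universal PBM Analysis Suite.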

| Sequence | PBM E-score |
| --- | --- |
| GCTCCTGA | -0.0807 |
| CACAAGCG | -0.0171 |
| AATCAATG | 0.202 |
| GGTGCTAA | -0.0169 |
| GTGTGAGA | -0.0466 |
| AATCTACG | 0.0253 |
| CACAACTA | 0.211 |
| ATGGTTGA | 0.158 |
| ACGGCCAC | -0.0405 |
| AATTCAGG | 0.145 |
| CGCGTGGC | -0.243 |
| CTCACAAA | 0.108 |
| CAGTGTAC | -0.11 |
| TAACAATA | 0.273 |
| CCTCTACA | -0.153 |
| AAAGTTGA | -0.0751 |
| ATGTTTGG | 0.0566 |
| CCAACAAC | -0.041 |
| AAGCGCCG | -0.0615 |
| GATCTTGA | 0.0786 |
| GGACGAAA | 0.0216 |
| TAAAAGCA | 0.0338 |

| Sequence | PBM E-score |
| --- | --- |
| AGAATAAT | 0.211 |
| TCTTGGAA | 0.0135 |
| AGGCCACC | -0.0394 |
| AGGCTCAC | -0.12 |
| GACCCCCC | -0.46 |
| ATACTTCG | 0.129 |
| CTTCGGAA | 0.152 |
| CACTTAAA | 0.0467 |
| AGCATTTC | 0.092 |
| GTGGGTTA | -0.0483 |
| CATAATAC | 0.22 |
| TCAAAGAA | -0.15 |
| CAGATATG | 0.161 |
| ATTCTAGC | -0.0844 |
| GAAGGGTA | 0.021 |
| GCCATGCC | -0.0136 |
| GCATTGGA | 0.0591 |
| ATACTAAT | 0.156 |
| AATCCCAC | -0.0232 |
| GCTCCAGA | -0.182 |
| CCCCAGCC | -0.121 |
| CGTCGCCC | -0.253 |

| Sequence | PBM E-score |
| --- | --- |
| ATGTGGGC | 0.103 |
| CATTACGC | 0.0481 |
| ACGGACGG | -0.0205 |
| CGATAGGA | -0.0522 |
| CACAGCTA | -0.081 |
| AAGCGATG | -0.0376 |
| GAAAACAA | 0.163 |
| TGGGCCAA | -0.136 |
| GGAGATTA | 0.0317 |
| CAAGATAC | 0.0195 |
| CAGGTGGG | -0.0107 |
| ATAAGCAT | 0.118 |
| ATGTATAA | 0.248 |
| ATGGAAGA | 0.0345 |
| TGAACGCA | 0.0549 |
| CGGTGATC | -0.209 |
| AATCTTCG | 0.0754 |
| CTATCTCC | 0.148 |
| AGCCGACA | -0.106 |
| AGCGACAC | -0.00713 |
| AACTGTCG | -0.058 |
| ACGGCTGA | 0.0312 |

| Sequence | PBM E-score |
| --- | --- |
| AATCCTCC | -0.144 |
| CCTTCTTC | -0.107 |
| GAGCCCCC | -0.384 |
| CCTTGCTA | 0.0914 |
| CAAGCGGA | -0.0401 |
| ACGGCTCT | -0.168 |
| ATCCCCGA | 0.00677 |
| CAATAAGA | 0.143 |
| ATACTTCA | 0.129 |
| ATCTTAAA | 0.146 |
| CCTCATTA | 0.237 |
| TCGCCAAA | -0.00891 |
| ATTTGCTG | 0.153 |
| AGTTCTCG | 0.182 |
| AATATCAC | 0.204 |
| AAGTCAAC | 0.0456 |
| CAGCGACC | -0.239 |
| AAAGGCAT | 0.0014 |
| CTGCGATC | -0.0989 |
| AGCTGAGC | -0.133 |

Retrieved one by one from above, three records:

| Sequence | PBM E-score |
| --- | --- |
| TCGCCAAA | -0.00891 |
| AGCTGAGC | -0.133 |
| AAAGGCAT | 0.0014 |
